PubChem BioAssay AID602196 | INSERM, 2012

- Purpose: 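Modifiers of cisplatin sensitivity in A549 cells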
- Cell system: human A549 lung cancer cells
- Reagent: siRNA pair against human genes
- Time to read-out: 48 h transfection before cisplatin; time from cisplatin to read-out not stated
- Treatment: cisplatin at a dose killing half of control-siRNA cells; exact dose and duration not given
- Measurement: 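Shift in cisplatin death relative to control siRNA, from -50 (all cells die) to +50 (no cells die); siRNAs harmful on their own scored 0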
- Reading the numbers: two-siRNA summed score (-2 to +2): higher = both siRNAs protect from cisplatin killing; -2 means both sensitise; mean protection from cisplatin (shift in death) and protection from cisplatin (shift in death), siRNA C and protection from cisplatin (shift in death), siRNA D: higher = protection from cisplatin killing
- Hit rule: 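siRNAs harmful alone (LDH or WST-1) get 0; others get +1 for less and -1 for more cisplatin killing; genes are active when the two siRNAs give the same sign, summing to ±2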
- Calls: active = both siRNAs shift cisplatin killing the same way; inactive = no consistent shift, or siRNA harmful alone
In all, the deposit lists about 23,000 reagents; shown is a part drawn at random. Of all reagents, 455 (2%) are marked active. 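Active includes both protection and sensitisation; some change values fall well beyond the stated -50 to +50 range.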 The numbers tell different reagents against one gene apart. Not stated in the record: the amount of reagent.

The opening 4 records as a preview:
| target | reagent no. | two-siRNA summed score (-2 to +2) | mean protection from cisplatin (shift in death) (%) | protection from cisplatin (shift in death), siRNA C (%) | protection from cisplatin (shift in death), siRNA D (%) | activity call |
| --- | --- | --- | --- | --- | --- | --- |
| FLJ12649 | 1 | 0 | 7.9 | 3.1 | 12.6 | inactive |
| DNM1P31 (dynamin 1 pseudogene 31) | 1 | 1 | 18.5 | 15.9 | 21.2 | inactive |
| ABRAXAS1 (abraxas 1, BRCA1 A complex subunit) | 1 | 0 | 4.3 | -0.3 | 9 | inactive |
| MECOM (MDS1 and EVI1 complex locus) | 1 | -1 | -9.3 | -27.1 | 8.5 | inactive |

Main list, from the first entry:
| target | reagent no. | two-siRNA summed score (-2 to +2) | mean protection from cisplatin (shift in death) (%) | protection from cisplatin (shift in death), siRNA C (%) | protection from cisplatin (shift in death), siRNA D (%) | activity call |
| --- | --- | --- | --- | --- | --- | --- |
| FLJ12649 | 1 | 0 | 7.9 | 3.1 | 12.6 | inactive |
| DNM1P31 (dynamin 1 pseudogene 31) | 1 | 1 | 18.5 | 15.9 | 21.2 | inactive |
| ABRAXAS1 (abraxas 1, BRCA1 A complex subunit) | 1 | 0 | 4.3 | -0.3 | 9 | inactive |
| MECOM (MDS1 and EVI1 complex locus) | 1 | -1 | -9.3 | -27.1 | 8.5 | inactive |
| MECOM (MDS1 and EVI1 complex locus) | 2 | 0 | 8.3 | 17.7 | -1.1 | inactive |
| NADK2 (NAD kinase 2, mitochondrial) | 1 | 0 | 12.3 | 10.5 | 14.1 | inactive |
| LOC441343 | 1 | 1 | 9.1 | 16.9 | 1.3 | inactive |
| SNAI3-AS1 (SNAI3 antisense RNA 1) | 1 | 0 | 5.5 | 8.3 | 2.7 | inactive |
| ZNF106 (zinc finger protein 106) | 1 | 0 | 2.9 | 4.9 | 0.8 | inactive |
| VPS8 (VPS8 subunit of CORVET complex) | 1 | 0 | 12.4 | 3.6 | 21.3 | inactive |
| RHBDD1 (rhomboid domain containing 1) | 1 | 1 | 11.3 | 20.4 | 2.2 | inactive |
| CDY1 (chromodomain Y-linked 1) | 1 | -1 | 1.6 | 12.4 | -9.3 | inactive |
| LOC441017 | 1 | 0 | 7.3 | 11.4 | 3.1 | inactive |
| DELE1 (DAP3 binding cell death enhancer 1) | 1 | 1 | 14.6 | 12.5 | 16.7 | inactive |
| CPA1 (carboxypeptidase A1) | 1 | -1 | -5 | 5.2 | -15.2 | inactive |
| TMEM252 (transmembrane protein 252) | 1 | 0 | 12 | 10.3 | 13.8 | inactive |
| PRPF19 (pre-mRNA processing factor 19) | 1 | 0 | -2 | -10.6 | 6.6 | inactive |
| ANGPT1 (angiopoietin 1) | 1 | 0 | 8.6 | 3.8 | 13.3 | inactive |
| MYOCD (myocardin) | 1 | 0 | 1.7 | 5.5 | -2.2 | inactive |
| PTGER4 (prostaglandin E receptor 4) | 1 | 0 | 7.5 | 0.6 | 14.4 | inactive |
| LOC441648 | 1 | 0 | 12.8 | 9.5 | 16.2 | inactive |
| CDH11 (cadherin 11) | 1 | 0 | -5.7 | -8.8 | -2.7 | inactive |
| CGRRF1 (cell growth regulator with ring finger domain 1) | 1 | 0 | 9.7 | 0.7 | 18.7 | inactive |
| EGR4 (early growth response 4) | 1 | 0 | -6.6 | -8.8 | -4.4 | inactive |
| NRG1 (neuregulin 1) | 1 | 1 | 9.8 | 12.7 | 6.9 | inactive |
| TM4SF19 (transmembrane 4 L six family member 19) | 1 | 0 | -0.3 | -0.6 | 0 | inactive |
| PLAGL2 (PLAG1 like zinc finger 2) | 1 | -1 | -9.8 | 1.7 | -21.4 | inactive |
| LOC401330 | 1 | 0 | 5.9 | 1.5 | 10.2 | inactive |
| RNF139 (ring finger protein 139) | 1 | -2 | -23.3 | -21.2 | -25.3 | active |
| SUPT4H1 (SPT4 homolog, DSIF elongation factor subunit) | 1 | -1 | -2.5 | -15 | 9.9 | inactive |
| LOC389844 | 1 | 0 | 10.3 | 13.8 | 6.8 | inactive |
| ZFHX3 (zinc finger homeobox 3) | 1 | 0 | 4 | 4.4 | 3.7 | inactive |
| ZFHX3 (zinc finger homeobox 3) | 2 | 0 | 4.2 | -4.1 | 12.6 | inactive |
| LOC440755 | 1 | 0 | 15.7 | 22.4 | 9.1 | inactive |
| ASB4 (ankyrin repeat and SOCS box containing 4) | 1 | 0 | -25.8 | -21.4 | -30.2 | inactive |
| GFRA4 (GDNF family receptor alpha 4) | 1 | 0 | -10.1 | -15.3 | -5 | inactive |
| EBAG9 (estrogen receptor binding site associated antigen 9) | 1 | 0 | -10.4 | -21.3 | 0.4 | inactive |
| HDAC2 (histone deacetylase 2) | 1 | -1 | -0.2 | 12.5 | -12.8 | inactive |
| SPARC (secreted protein acidic and cysteine rich) | 1 | 0 | 8.7 | 9 | 8.3 | inactive |
